Data as given in PubChem BioAssay AID1259405 (NCATS, 2018).
The deposit covers about 50,000 reagents; shown is a random part of them. Over the whole deposit, about 4,000 (8%) got an active call. 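Mouse siRNA library applied to hamster cells; one well for each siRNA.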 Entries without a mark were called inactive. Reagents against one gene are numbered here.

Screen: 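Mouse-designed siRNAs used to find CHO productivity engineering targets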 (primary screen)
Cell system: Chinese hamster CHO-K1 ovary cells with stable secreted eGFP expression
Reagents: single siRNA against mouse genes, 0.8 pmol siRNA per well (2 µl of 400 nM stock)
Time to read-out: 3 days
Detection: 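Per-well intracellular GFP measured by laser scanning cytometry, plus viability from ATP luminescence, each relative to plate median of non-targeting control wells, in %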
Scale: GFP, % of control: higher = more GFP per well, higher productivity; viability (ATP), % of control: higher = more viable cells (more ATP)
Call rule: 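a knock-down is called active if GFP reaches 120% or more of non-targeting control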

no.	gene knocked down	reagent	GFP, % of control	viability (ATP), % of control
1	Or10d5	1	116	66.5
2	Or10d5	2	77.3	83.9
3	Or10d5	3	62.8	74.7
4	Trim52	1	85.6	77.4
5	Trim52	2	105	91.4
6	Trim52	3	114	116
7	Cygb	1	82.9	96.8
8	Cygb	2	102	93.7
9	Cygb	3	65.2	75.4
10	Egfl8	1	83.8	99.1
11	Egfl8	2	99.7	93.7
12	Egfl8	3	97	81.4
13	Prmt1	1	84.3	54.1
14	Prmt1	2	153 (active)	142
15	Prmt1	3	88.9	86.8
16	Ccr7	1	118	90
17	Ccr7	2	49.5	68.9
18	Ccr7	3	89.7	83.6
19	Trim14	1	90	82.8
20	Trim14	2	76	76.9
21	Trim14	3	84.5	60.9
22	Prdm1	1	92.4	93.1
23	Prdm1	2	142 (active)	78.2
24	Prdm1	3	111	93.3
25	Prkar1a	1	105	82.7
26	Prkar1a	2	69.3	65
27	Pdzd11	1	73	65.4
28	Pdzd11	2	23.8	43.3
29	Pdzd11	3	92.1	103
30	Dock3	1	76.9	64.2
31	Dock3	2	81.5	90
32	Dock3	3	64.1	78.6
33	Arhgef2	1	107	82.9
34	Arhgef2	2	65.4	54
35	Arhgef2	3	66.1	61.6
36	Fmn1	1	65.5	58.2
37	Fmn1	2	60	65.7
38	Fmn1	3	91	71.9
39	Bcl7c	1	46.9	29.7
40	Bcl7c	2	75.4	76.6
41	Bcl7c	3	96.2	101
42	Dnajc1	1	84.7	80.4
43	Dnajc1	2	71.4	86
44	Dnajc1	3	76.4	79.1
45	Myo10	1	80.5	95.2
46	Myo10	2	84.7	83
47	Immt	1	60.3	72.7
48	Immt	2	111	92.2
49	Immt	3	115	105
50	Slco6c1	1	54.9	54.5
51	Slco6c1	2	40.8	53.4
52	Slco6c1	3	62.9	75.5

Next part, starting with the last 5 of the part before.
no.	gene knocked down	reagent	GFP, % of control	viability (ATP), % of control
48	Immt	2	111	92.2
49	Immt	3	115	105
50	Slco6c1	1	54.9	54.5
51	Slco6c1	2	40.8	53.4
52	Slco6c1	3	62.9	75.5
53	Or13a24	1	70.9	61
54	Or13a24	2	137 (active)	127
55	Or13a24	3	77.3	59.8
56	Arid3a	1	66.7	79.5
57	Arid3a	2	111	91.8
58	Mmp12	1	53.4	75.7
59	Mmp12	2	71.4	82.5
60	Gsx2	1	74.9	81.9
61	Gsx2	2	76.7	54.2
62	Gsx2	3	89	84.1
63	Snrpd2	1	130 (active)	47.5
64	Snrpd2	2	103	37.8
65	Cideb	1	109	121
66	Cideb	2	65.9	58.5
67	Cideb	3	138 (active)	130
68	St3gal3	1	14.2	14.1
69	St3gal3	2	65.7	68.6
70	St3gal3	3	39.3	66.1
71	Clec2d	1	15	23.2
72	Clec2d	2	60.9	45.4
73	Clec2d	3	117	104
74	Dennd1a	1	90.8	50.7
75	Dennd1a	2	87.3	82
76	Dennd1a	3	124 (active)	131
77	Cnnm2	1	55.1	83.4
78	Cnnm2	2	91.9	92.2
79	Cnnm2	3	67.1	94.9
80	Dna2	1	89.1	95.6
81	Dna2	2	88.2	102
82	Dna2	3	110	66.5
83	Zfhx3	1	72.5	83.6
84	Zfhx3	2	102	86.5
85	Zfhx3	3	62.3	67.6
